# Laboratory results taken from the supplement of paper PMC8728848.
# The list shows a part of the results.
# B1: Wzz (Escherichia coli) (protein)
# chain: MRTWKFPSVRVMMRVENNNVSGQNHDPEQIDLIDLLVQLWRGKMTIIISVIVAIVLAIGYLAVAKEKWTSTAIITQPDVGQIAGYNNAMNVIYGQAAPKVSDLQETLIGRFSSAFSALAETLDNQEEPEKLTIEPSVKNQQLPLTVSYVGQTAEGAQMKLAQYIQQVDDKVNQELEKDLKDNIALGRKNLQDSLRTQEVVAQEQKDLRIRQIQEALQYANQAQVTKPQIQQTGEDITQDTLFLLGSEALESMIKHEATRPLVFSSNYYQTRQNLLDIDNLDVDKLDIHAYLYVMKPTLPIRRDSPKKAITLILAVLLGGMVGAGIVLGRNALRNYNAK
# Columns and labels:
# Experiment in all cases: glycan array binding signal (z-score within array); higher = stronger binding
# Conditions in all cases: glycan notation: IUPAC condensed, linker removed
# [1] = target: Neu5Ac(a2-8)Neu5Ac
# Method in brief: (§1)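 The binding signal is a Z-score computed within each array. Data were drawn from 3228 arrays in the Consortium for Functional Glycomics database, restricted to those with a known protein sequence. Scores were averaged over arrays of the same protein sequence at different concentrations or buffers, and over linkers, and negative values can be taken as non-binding.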
# [2] = target: Neu5Ac(a2-8)Neu5Ac(a2-3)Gal(b1-3)GalNAc(b1-4)[Neu5Ac(a2-3)]Gal(b1-4)Glc
# Method in brief: as §1
# [3] = target: Neu5Ac(a2-8)Neu5Ac(a2-3)Gal(b1-3)GalNAc(b1-4)[Neu5Ac(a2-8)Neu5Ac(a2-3)]Gal(b1-4)Glc
# Method in brief: as §1
# [4] = target: Neu5Ac(a2-8)Neu5Ac(a2-3)Gal(b1-4)Glc
# Method in brief: as §1
# [5] = target: Neu5Ac(a2-8)Neu5Ac(a2-3)Gal(b1-4)GlcNAc
# Method in brief: as §1
# [6] = target: Neu5Ac(a2-8)Neu5Ac(a2-3)[Gal(b1-3)GalNAc(b1-4)]Gal(b1-4)Glc
# Method in brief: as §1
# [7] = target: Neu5Ac(a2-8)Neu5Ac(a2-3)[GalNAc(b1-4)]Gal(b1-4)Glc
# Method in brief: as §1
# [8] = target: Neu5Ac(a2-8)Neu5Ac(a2-8)Neu5Ac
# Method in brief: as §1
# [9] = target: Neu5Ac(a2-8)Neu5Ac(a2-8)Neu5Ac(a2-3)Gal(b1-4)Glc
# Method in brief: as §1
# [10] = target: Neu5Ac(a2-8)Neu5Ac(a2-8)Neu5Ac(a2-3)[Gal(b1-3)GalNAc(b1-4)]Gal(b1-4)Glc
# Method in brief: as §1
# [11] = target: Neu5Ac(a2-8)Neu5Ac(a2-8)Neu5Ac(a2-3)[GalNAc(b1-4)]Gal(b1-4)Glc
# Method in brief: as §1
# [12] = target: Neu5Ac(a2-8)Neu5Ac(a2-8)Neu5Ac(a2-8)Neu5Ac(a2-3)[GalNAc(b1-4)]Gal(b1-4)Glc
# Method in brief: as §1
# [13] = target: Neu5Ac(a2-8)Neu5Gc(a2-3)Gal(b1-4)GlcNAc
# Method in brief: as §1
# [14] = target: Neu5Ac(b2-6)Gal(b1-4)GlcNAc
# Method in brief: as §1
# [15] = target: Neu5Ac(b2-6)GalNAc
# Method in brief: as §1
# [16] = target: Neu5Ac9Ac(a2-3)Gal(b1-3)GlcNAc
# Method in brief: as §1
# [17] = target: Neu5Ac9Ac(a2-3)Gal(b1-4)GlcNAc
# Method in brief: as §1
# [18] = target: Neu5Ac9Ac(a2-6)Gal(b1-4)GlcNAc
# Method in brief: as §1
# [19] = target: Neu5Gc(a2-3)Gal(b1-3)GlcNAc
# Method in brief: as §1
# [20] = target: Neu5Gc(a2-3)Gal(b1-3)[Fuc(a1-4)]GlcNAc
# Method in brief: as §1
# [21] = target: Neu5Gc(a2-3)Gal(b1-4)Glc
# Method in brief: as §1
# [22] = target: Neu5Gc(a2-3)Gal(b1-4)GlcNAc
# Method in brief: as §1
# [23] = target: Neu5Gc(a2-3)Gal(b1-4)GlcNAc(b1-3)Gal(b1-4)GlcNAc(b1-2)Man(a1-3)[Neu5Gc(a2-3)Gal(b1-4)GlcNAc(b1-3)Gal(b1-4)GlcNAc(b1-2)Man(a1-6)]Man(b1-4)GlcNAc(b1-4)GlcNAc
# Method in brief: as §1
# [24] = target: Neu5Gc(a2-3)Gal(b1-4)[Fuc(a1-3)]GlcNAc
# Method in brief: as §1
# [25] = target: Neu5Gc(a2-6)Gal(b1-4)GlcNAc
# Method in brief: as §1
# [26] = target: Neu5Gc(a2-6)GalNAc
# Method in brief: as §1
# [27] = target: Neu5Gc(a2-8)Neu5Ac(a2-3)Gal(b1-4)GlcNAc
# Method in brief: as §1
# [28] = target: Neu5Gc(a2-8)Neu5Gc(a2-3)Gal(b1-4)GlcNAc
# Method in brief: as §1
# [29] = target: Neu5Gc(a2-8)Neu5Gc(a2-3)Gal(b1-4)GlcNAc(b1-3)Gal(b1-4)GlcNAc
# Method in brief: as §1
# [30] = target: Neu5Gc(a2-8)Neu5Gc(a2-6)Gal(b1-4)GlcNAc
# Method in brief: as §1
# [31] = target: Neu5Gc(b2-6)Gal(b1-4)GlcNAc
# Method in brief: as §1
binder,measurement,setting,value
B1,glycan array binding signal (z-score),[1],-0.367
same,glycan array binding signal (z-score),[2],0.181
same,glycan array binding signal (z-score),[3],0.123
same,glycan array binding signal (z-score),[4],-1.26
same,glycan array binding signal (z-score),[5],-0.609
same,glycan array binding signal (z-score),[6],0.345
same,glycan array binding signal (z-score),[7],1.61
same,glycan array binding signal (z-score),[8],1.31
same,glycan array binding signal (z-score),[9],0.654
same,glycan array binding signal (z-score),[10],-0.252
same,glycan array binding signal (z-score),[11],1.24
same,glycan array binding signal (z-score),[12],0.336
same,glycan array binding signal (z-score),[13],-0.39
same,glycan array binding signal (z-score),[14],-0.813
same,glycan array binding signal (z-score),[15],-0.61
same,glycan array binding signal (z-score),[16],-0.549
same,glycan array binding signal (z-score),[17],-0.537
same,glycan array binding signal (z-score),[18],-0.542
same,glycan array binding signal (z-score),[19],-0.205
same,glycan array binding signal (z-score),[20],0.201
same,glycan array binding signal (z-score),[21],0.351
same,glycan array binding signal (z-score),[22],-0.21
same,glycan array binding signal (z-score),[23],-0.88
same,glycan array binding signal (z-score),[24],0.113
same,glycan array binding signal (z-score),[25],0.167
same,glycan array binding signal (z-score),[26],0.139
same,glycan array binding signal (z-score),[27],0.07
same,glycan array binding signal (z-score),[28],-0.883
same,glycan array binding signal (z-score),[29],-0.496
same,glycan array binding signal (z-score),[30],0.212
same,glycan array binding signal (z-score),[31],0.203

# As a short view, some entries already given.
binder,measurement,setting,value
B1,glycan array binding signal (z-score),[16],-0.549
same,glycan array binding signal (z-score),[17],-0.537
